Record: PubChem BioAssay AID1224830 (NIAID, 2016)
The whole screen tested about 18,000 reagents; below is an unselected part. About 2,900 of all reagents (16%) count as active. 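Calls are made per well; low scores hint the gene aids the LPS response, high scores that it dampens it.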 A number with no mark means an inactive call. Repeated entries: four replicate wells of each siRNA pool.

Aim: 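Host factors that control LPS-induced TNF expression in human macrophages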 (primary screen)
Cell system: human THP-1 monocytic leukaemia cells, TNF dual-luciferase reporter clone, PMA-differentiated to macrophage-like cells
Knock-down reagent: siRNA pool against human genes, 50 nM
Duration: LPS for 4 h, given about 3 days after siRNA transfection
Treatment: bacterial LPS (TLR4 ligand), 10 ng/ml
Read-out: 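TNF firefly reporter luminescence divided by renilla, normalised to the plate median, then turned into a robust z-score for each replicate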
Reading the numbers: TNF reporter robust z-score: higher = stronger TNF reporter response to LPS
Call rule: 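Each well counts as active if its z-score is over 2.8 or under -1.5; controls are left without a call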

| Gene | TNF reporter robust z-score |
| --- | --- |
| NOL10 (nucleolar protein 10) | -0.38 |
| NOL10 (nucleolar protein 10) | -0.39 |
| NOL10 (nucleolar protein 10) | -1.06 |
| NOL10 (nucleolar protein 10) | 0.72 |
| CLCNKB (chloride voltage-gated channel Kb) | 0.03 |
| CLCNKB (chloride voltage-gated channel Kb) | 1.13 |
| CLCNKB (chloride voltage-gated channel Kb) | 0.41 |
| GLUD2 (glutamate dehydrogenase 2) | -0.02 |
| GLUD2 (glutamate dehydrogenase 2) | 0.32 |
| GLUD2 (glutamate dehydrogenase 2) | -0.92 |
| GLUD2 (glutamate dehydrogenase 2) | -0.18 |
| PKMYT1 (protein kinase, membrane associated tyrosine/threonine 1) | -0.43 |
| PKMYT1 (protein kinase, membrane associated tyrosine/threonine 1) | 2.8 (active) |
| PKMYT1 (protein kinase, membrane associated tyrosine/threonine 1) | 0.14 |
| PKMYT1 (protein kinase, membrane associated tyrosine/threonine 1) | 0.55 |
| CCT6B (chaperonin containing TCP1 subunit 6B) | -0.09 |
| CCT6B (chaperonin containing TCP1 subunit 6B) | -0.76 |
| CCT6B (chaperonin containing TCP1 subunit 6B) | -0.71 |
| CCT6B (chaperonin containing TCP1 subunit 6B) | 1.58 |
| HNRNPA1L2 (heterogeneous nuclear ribonucleoprotein A1 like 2) | -1.65 (active) |
| HNRNPA1L2 (heterogeneous nuclear ribonucleoprotein A1 like 2) | -1.75 (active) |
| HNRNPA1L2 (heterogeneous nuclear ribonucleoprotein A1 like 2) | -0.96 |
| HNRNPA1L2 (heterogeneous nuclear ribonucleoprotein A1 like 2) | -0.67 |
| INMT (indolethylamine N-methyltransferase) | -0.47 |
| INMT (indolethylamine N-methyltransferase) | -0.62 |
| INMT (indolethylamine N-methyltransferase) | -0.87 |
| INMT (indolethylamine N-methyltransferase) | -0.99 |
| CXADR (CXADR cell adhesion molecule) | -0.15 |
| CXADR (CXADR cell adhesion molecule) | 0.86 |
| CXADR (CXADR cell adhesion molecule) | 0.47 |
| CXADR (CXADR cell adhesion molecule) | 0.62 |
| JAK2 (Janus kinase 2) | 0.3 |
| JAK2 (Janus kinase 2) | 0.41 |
| JAK2 (Janus kinase 2) | 0 |
| JAK2 (Janus kinase 2) | 0.54 |
| KHDRBS2 | 0.3 |
| KHDRBS2 | 1.39 |
| KHDRBS2 | 1.11 |
| KHDRBS2 | 1.91 |
| ZMYM1 (zinc finger MYM-type containing 1) | -0.13 |
| ZMYM1 (zinc finger MYM-type containing 1) | 0.06 |
| ZMYM1 (zinc finger MYM-type containing 1) | -0.14 |
| ZMYM1 (zinc finger MYM-type containing 1) | 0 |
| OR9I1 (olfactory receptor family 9 subfamily I member 1) | -0.33 |
| OR9I1 (olfactory receptor family 9 subfamily I member 1) | 1.07 |
| OR9I1 (olfactory receptor family 9 subfamily I member 1) | 0.46 |
| OR9I1 (olfactory receptor family 9 subfamily I member 1) | 1.17 |
| CALCRL (calcitonin receptor like receptor) | 2.1 |
| CALCRL (calcitonin receptor like receptor) | 1.16 |
| CALCRL (calcitonin receptor like receptor) | 0.46 |
| CALCRL (calcitonin receptor like receptor) | 3.73 (active) |
| FOXB2 (forkhead box B2) | -0.09 |
| FOXB2 (forkhead box B2) | -0.32 |
| FOXB2 (forkhead box B2) | 0.51 |
| FOXB2 (forkhead box B2) | 1.29 |
| APOC1 (apolipoprotein C1) | 0.52 |
| APOC1 (apolipoprotein C1) | 0.13 |
| APOC1 (apolipoprotein C1) | -0.45 |
| APOC1 (apolipoprotein C1) | 0.7 |
| VSIG1 (V-set and immunoglobulin domain containing 1) | -0.46 |
| VSIG1 (V-set and immunoglobulin domain containing 1) | 0.05 |
| VSIG1 (V-set and immunoglobulin domain containing 1) | 0.3 |
| VSIG1 (V-set and immunoglobulin domain containing 1) | 0.25 |
| AZIN1 (antizyme inhibitor 1) | 0.34 |
| AZIN1 (antizyme inhibitor 1) | -0.31 |
| AZIN1 (antizyme inhibitor 1) | 0.28 |
| AZIN1 (antizyme inhibitor 1) | 1.45 |
| SYTL1 (synaptotagmin like 1) | 0.34 |
| SYTL1 (synaptotagmin like 1) | 1.14 |
| SYTL1 (synaptotagmin like 1) | 0.09 |
| SYTL1 (synaptotagmin like 1) | 0.93 |
| SCN5A (sodium voltage-gated channel alpha subunit 5) | -1.03 |
| SCN5A (sodium voltage-gated channel alpha subunit 5) | -0.65 |
| SCN5A (sodium voltage-gated channel alpha subunit 5) | -0.58 |
| SCN5A (sodium voltage-gated channel alpha subunit 5) | -0.5 |
| ME3 (malic enzyme 3) | -1.22 |
| ME3 (malic enzyme 3) | -1.09 |
| ME3 (malic enzyme 3) | -0.98 |
| ME3 (malic enzyme 3) | -0.94 |
| KATNAL1 (katanin catalytic subunit A1 like 1) | -0.57 |
| KATNAL1 (katanin catalytic subunit A1 like 1) | -0.52 |
| KATNAL1 (katanin catalytic subunit A1 like 1) | 0.07 |
| SH2B1 (SH2B adaptor protein 1) | 3.2 (active) |
| SH2B1 (SH2B adaptor protein 1) | 3.71 (active) |
| SH2B1 (SH2B adaptor protein 1) | 0.32 |
| SH2B1 (SH2B adaptor protein 1) | 0.33 |
| ANXA6 (annexin A6) | -0.99 |
| ANXA6 (annexin A6) | -0.04 |
| ANXA6 (annexin A6) | 0 |
| ANXA6 (annexin A6) | 0.71 |

Records above marked active (6):
| Gene | TNF reporter robust z-score |
| --- | --- |
| PKMYT1 (protein kinase, membrane associated tyrosine/threonine 1) | 2.8 (active) |
| HNRNPA1L2 (heterogeneous nuclear ribonucleoprotein A1 like 2) | -1.65 (active) |
| HNRNPA1L2 (heterogeneous nuclear ribonucleoprotein A1 like 2) | -1.75 (active) |
| CALCRL (calcitonin receptor like receptor) | 3.73 (active) |
| SH2B1 (SH2B adaptor protein 1) | 3.2 (active) |
| SH2B1 (SH2B adaptor protein 1) | 3.71 (active) |

The listing continues.
| Gene | TNF reporter robust z-score |
| --- | --- |
| RIDA (reactive intermediate imine deaminase A) | 2.56 |
| RIDA (reactive intermediate imine deaminase A) | 2.3 |
| RIDA (reactive intermediate imine deaminase A) | 1.11 |
| RIDA (reactive intermediate imine deaminase A) | 2.77 |
| BNC1 (basonuclin zinc finger protein 1) | -0.16 |
| BNC1 (basonuclin zinc finger protein 1) | -0.07 |
| BNC1 (basonuclin zinc finger protein 1) | -1.2 |
| BNC1 (basonuclin zinc finger protein 1) | -0.79 |
| URI1 (URI1 prefoldin like chaperone) | -1.01 |
| URI1 (URI1 prefoldin like chaperone) | -0.68 |
| URI1 (URI1 prefoldin like chaperone) | -0.3 |
| URI1 (URI1 prefoldin like chaperone) | 0.14 |
| PRMT6 (protein arginine methyltransferase 6) | -0.33 |
| PRMT6 (protein arginine methyltransferase 6) | -0.26 |
| PRMT6 (protein arginine methyltransferase 6) | 0.12 |
| DBF4B (DBF4B-CDC7 kinase regulatory subunit) | -1.31 |
| DBF4B (DBF4B-CDC7 kinase regulatory subunit) | -0.35 |
| DBF4B (DBF4B-CDC7 kinase regulatory subunit) | -0.2 |
| DBF4B (DBF4B-CDC7 kinase regulatory subunit) | 0.01 |
| MCM8 | -1.1 |
| MCM8 | -0.4 |
| MCM8 | -0.81 |
| MCM8 | -0.83 |
| CUL9 (cullin 9) | 0.15 |
| CUL9 (cullin 9) | 0.14 |
| CUL9 (cullin 9) | -0.5 |
| CUL9 (cullin 9) | -1.38 |
| PNRC1 (proline rich nuclear receptor coactivator 1) | -1.33 |
| PNRC1 (proline rich nuclear receptor coactivator 1) | -0.72 |
| PNRC1 (proline rich nuclear receptor coactivator 1) | -1.64 (active) |
| PNRC1 (proline rich nuclear receptor coactivator 1) | -0.98 |
| DCD (dermcidin) | -1.02 |
| DCD (dermcidin) | -0.44 |
| DCD (dermcidin) | -0.66 |
| DCD (dermcidin) | -0.85 |
| NXNL2 (nucleoredoxin like 2) | -0.17 |
| NXNL2 (nucleoredoxin like 2) | -0.73 |
| NXNL2 (nucleoredoxin like 2) | -0.91 |
| NXNL2 (nucleoredoxin like 2) | -0.66 |
| GSTA5 (glutathione S-transferase alpha 5) | -0.43 |
| GSTA5 (glutathione S-transferase alpha 5) | 0.41 |
| GSTA5 (glutathione S-transferase alpha 5) | 1.05 |
| GSTA5 (glutathione S-transferase alpha 5) | 0.84 |
| HEXIM2 (HEXIM P-TEFb complex subunit 2) | -0.83 |
| HEXIM2 (HEXIM P-TEFb complex subunit 2) | -0.92 |
| HEXIM2 (HEXIM P-TEFb complex subunit 2) | -1.21 |
| HEXIM2 (HEXIM P-TEFb complex subunit 2) | -0.57 |
| GEMIN6 (gem nuclear organelle associated protein 6) | -1.11 |
| GEMIN6 (gem nuclear organelle associated protein 6) | -0.73 |
| GEMIN6 (gem nuclear organelle associated protein 6) | -0.44 |
| GEMIN6 (gem nuclear organelle associated protein 6) | -0.12 |
